The target of this assay is T1, Sbh1-HA (S. cerevisiae) (UniProt P52870).
T1 sequence: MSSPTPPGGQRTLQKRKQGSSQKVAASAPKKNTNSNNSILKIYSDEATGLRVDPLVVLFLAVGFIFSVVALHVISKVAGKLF
Put plainly: co-IP.

No constants are given. Whether binding was seen depends on the method and setting. Binding seen in cells or lysates may run through a third protein. Some binding calls cover weakened binding; strength is not graded here. Sequences can lack the tags named with a protein.

B1: Sec61 (endogenous) (protein, UniProt P32915 1-480)
chain: MSSNRVLDLFKPFESFLPEVIAPERKVPYNQKLIWTGVSLLIFLILGQIPLYGIVSSETSDPLYWLRAMLASNRGTLLELGVSPIITSSMIFQFLQGTQLLQIRPESKQDRELFQIAQKVCAIILILGQALVVVMTGNYGAPSDLGLPICLLLIFQLMFASLIVMLLDELLSKGYGLGSGISLFTATNIAEQIFWRAFAPTTVNSGRGKEFEGAVIAFFHLLAVRKDKKRALVEAFYRTNLPNMFQVLMTVAIFLFVLYLQGFRYELPIRSTKVRGQIGIYPIKLFYTSNTPIMLQSALTSNIFLISQILFQKYPTNPLIRLIGVWGIRPGTQGPQMALSGLAYYIQPLMSLSEALLDPIKTIVYITFVLGSCAVFSKTWIEISGTSPRDIAKQFKDQGMVINGKRETSIYRELKKIIPTAAAFGGATIGALSVGSDLLGTLGSGASILMATTTIYGYYEAAAKEGGFTKNLVPGFSDLM
Regarding B1, the binding entry is on record as “binds”.

These data come from paper doi:10.1101/178947.
